Reference: PMC11310522

What was measured:
[1] = target: MCA–II–a–TAPa (Arabidopsis thaliana); assay: affinity purification with mass spectrometry; TAPa-tagged baits from four to five weeks-old Arabidopsis transgenic plants; extraction buffer 50 mM Tris-HCl pH 7.5, 150 mM NaCl, 10% glycerol, 0.1% Nonidet P-40; LC-MS/MS
[2] = target: MCA–II–b–TAPa (Arabidopsis thaliana); assay: as above

B1: AT5G45620–SS regulatory sub 13a (protein, UniProt Q8RWF0 1-386)
chain: MAALQYLESLKNTHPELGEWYNSLADLYQKKLWHQLTLKLEQFIALAVFQAGDALIQFYHNFITDFETKINLLKLAHFAVVVSRQYSEKEAAVSYLESVIEKLRATKEPRITEPIIYIETQKALFKLEQGDQKECKKILDDGKSSLDSMTDIDPSVYANFYWVSSQYHKCRQEFSDFYKSALLYLAYTSVEDLSESFKLDLAFDLSLSALLGENIYNFGELLAHPILKSLLGTNVEWLYHILQAFNHGDLVQYQELCRVHNASLIAQPALVENEKKLLEKINILCLIEIIFSRPAEDRTIPLSIIAERTKLSIEDVEHLLMKSLSVHLIEGIIDQVNGTIYVSWAQPRVLGIPQIKALRDQLDSWVDKVHTTLLSVEAETPDLVAA
- binding [1]: binds
- binding [2]: binds

Results are given in words; binding and its absence hold for the method and conditions named. Binding seen in cells or lysates may run through a third protein. These calls come from enrichment with a bait or labelling near it, and not all partners need be listed.
